Source: patent US9802996B2 (Glytech, Inc., priority 2011, dated 2017)
HELM strings list residues between dots; [ac] is acetyl, [am] amide, other brackets name non-standard units.

Assay: general procedure: Fmoc solid-phase peptide synthesis; 2-chlorotrityl chloride resin; HCTU (TBTU/DIPEA for glycosylated Asn; HOBt/DIC after it)
Settings: late stage modification step

Substance: PEPTIDE1{S.A.N.S.N.P.A.M.A.P.R.E.R.K.A.G.C.K.[C(GlcNAc)].F.F.W.K.T.F.T.S.C}$PEPTIDE1,PEPTIDE1,17:R3-28:R3$$$V2.0
- step yield: yield 64%
